Hit rate of the full screen: of about 300,000 compounds, about 3,700 (1.2%) were called active. This list was built around the results that the source calls inconclusive (neither active nor inactive); the mix of calls is not that of the screen. Calls follow the shape of the full dose curve; tested in HEK293 cells. Potencies of inconclusive entries are doubtful fits and often do not repeat.
Experiment: qHTS for Inhibitors of binding or entry into cells for Lassa Virus; also: nearly all actives have a fitted effect of over 50% in size
Details: Lassa virus pseudotype entry inhibition, cell reporter; activity change, negative = inhibition: at 37.9 µM (top of the series) unless noted
% is scaled to controls: 0 for no effect and ±100 for the full control effect; potency is read from the fitted curve at half-maximal effect.

Row | Compound | Potency | activity change, negative = inhibition
1 | N/C(=N\OC(=O)CC1CCCCC1)c1cccnc1 | inconclusive: 3.66 µM [activator, single point] | –
2 | COc1ccc2nc(SCc3ccccc3)nc(C)c2c1 | inconclusive: 8.91 µM [inhibitor, partial curve, poor fit] | –
3 | COc1ccc2oc(C(=O)N3CCN(C(=O)c4ccco4)CC3)c(C)c2c1 | – | inactive: -15.3%
4 | Cc1cccc(-c2nc(C(N)=O)c3c(n2)n(-c2ccc4c(c2)OCO4)c(=O)n3C)c1 | – | inactive: -22.9% [at 46.1 µM]
5 | COc1ccc(N(C)C(=O)c2cc(S(=O)(=O)N3CCc4ccccc43)cn2C)c(OC)c1 | inconclusive: 35.5 µM [inhibitor, single point] | –
6 | COc1ccc(/C=C/C(=O)NCC(=O)N/N=C/c2cc(Br)ccc2OCc2ccccc2)cc1 | inconclusive: 11.2 µM [inhibitor, single point] | –
7 | CN(Cc1ccon1)C(=O)CCc1nnc(Cc2ccc(-c3ccccc3)cc2)o1 | inconclusive: 6.31 µM [inhibitor, single point] | –
8 | CN(c1ccc(OCC(=O)NCCc2ccccc2)cc1)S(=O)(=O)c1ccc(Cl)cc1 | inconclusive: 20 µM [inhibitor, single point] | –
9 | CCc1ccc(-n2c(SCc3cccc(F)c3)nc3[nH]ncc3c2=O)cc1 | inconclusive: 35.5 µM [inhibitor, single point] | –
10 | COc1ccc(C(=O)OCC(=O)Nc2nc3c(F)c(F)c(F)cc3s2)cc1OC | – | inactive: -0.215%
11 | CC(C)C(NC(=O)COc1ccccc1)C(=O)O (stereo not drawn) | – | inactive: 6.69%
12 | Cc1ccc(-n2[nH]c(C)c(C=Nc3ccc(S(=O)(=O)Nc4nccs4)cc3)c2=O)cc1 | – | inactive: 12.3%
13 | O=C(NCc1ccccc1)c1c(O)c2ccccc2[nH]c1=O | inconclusive: 0.631 µM [inhibitor, partial curve, poor fit] | –
14 | Cc1ccc(N2C(=S)NC3c4cc(Cl)ccc4OC2(C)C3C(=O)N(C)C)cc1 (stereo not drawn) | inconclusive: 25.1 µM [inhibitor, single point] | –
15 | Oc1ccc(-c2nc(=S)[nH][nH]2)cc1 | – | inactive: 15.3%
16 | CC(C)(C)c1ccc(NC(=O)Nc2ccc(F)cc2)cc1 | inconclusive: 10 µM [inhibitor, partial curve, poor fit] | –
17 | Cc1ccc(NC(=O)CN2CCc3cc4c(cc3C2)OCCCO4)cc1C | inconclusive: 11.2 µM [inhibitor, partial curve, poor fit] | –
18 | CC1CCCCN1C(=O)c1c(Cl)cnn1C (stereo not drawn) | inconclusive: 25.1 µM [activator, single point] | –
19 | O=C(CSc1oc(-c2ccccc2)nc1S(=O)(=O)c1ccccc1)c1ccccc1 | inconclusive: 3.55 µM [inhibitor, full curve, poor fit] | –
20 | Cc1ccc(NC(=O)COC(=O)C2(c3ccc(Cl)cc3)CCCC2)cc1 | inconclusive: 35.5 µM [inhibitor, single point] | –
21 | CC(C)Cn1cc(NC(=O)NCc2ccccc2Cl)c2ccccc2c1=O | inconclusive: 10 µM [activator, partial curve, poor fit] | –
22 | Nc1ccccc1SCC(=O)Nc1cccc2ccccc12 | – | inactive: -3.96% [at 46.1 µM]

Row | Compound | Potency | activity change, negative = inhibition
23 | CCOP(=O)(CCP(=O)(OCC)OCC)OCC.C[CH2][Sn]([Cl])([Cl])[CH2]C | active: 12.6 µM | –
24 | CCn1c(C)c(C(=O)O)c2cc(OC)ccc21 | – | inactive: -0.164%
25 | N#CCCn1cc(/C=N/O)c(-c2ccccc2)n1 | – | inactive: 7.85%
26 | Cc1ccccc1C(=O)N/N=C/c1ccc(Sc2ccccn2)o1 | inconclusive: 15.8 µM [activator, single point] | –
27 | CC1=CCC2C(=O)N(c3nc(C)cc(C)n3)C(=O)C2C1 (stereo not drawn) | – | inactive: 5.96%
28 | CCC(C)[C@H](NC(=O)Nc1cccc(Cl)c1)C(=O)O (stereo partly drawn) | – | inactive: 7.51%
29 | COc1ccc(-c2ccc(CCC(=O)O)n2CC(=O)Nc2cccc(C(F)(F)F)c2)cc1 | inconclusive: 3.16 µM [activator, partial curve, poor fit] | –
30 | Cc1cc(=O)oc2cc(OCC3CC(c4ccc(Br)cc4)=NO3)ccc12 (stereo not drawn) | – | inactive: -3.8%
31 | N#Cc1c(NC(=O)CS(=O)(=O)c2ccc(Cl)cc2)sc2c1CCCCC2 | – | inactive: -19.3% [at 46.1 µM]
32 | CCOC(=O)c1ccc(NS(=O)(=O)c2cc3c4c(c2)CCN4C(=O)CC3)cc1 | inconclusive: 3.16 µM [inhibitor, partial curve, poor fit] | –
33 | Cc1cccc(-n2c(=O)c3c(c4cc(C)ccc4n3C)n(CC(=O)Nc3ccc(C)cc3C)c2=O)c1 | – | inactive: 17.5% [at 46.1 µM]
34 | CC(C)(C)NC(=O)COc1ccc(CNCc2cccs2)cc1 | inconclusive: 29.1 µM [inhibitor, single point] | –
35 | Cc1nnc(NC(=O)C(=O)c2cc(C)n(-c3ccc(C)c(C)c3)c2C)s1 | inconclusive: 10 µM [inhibitor, partial curve, poor fit] | –
36 | CCCC(=O)c1ccc(OC(=O)c2c(-c3ccccc3Cl)noc2C)cc1 | inconclusive: 3.98 µM [inhibitor, full curve, poor fit] | –
37 | CC(C)CN(CC(C)C)S(=O)(=O)N1CCC(C(=O)NC2CCCCCCC2)CC1 | – | inactive: -14.1%
38 | COCCn1c(=N)c(C(=O)NCc2ccco2)cc2c(=O)n3cc(C)ccc3nc21 | inconclusive: 1.58 µM [activator, partial curve, poor fit] | –
39 | COc1cccc(CNc2ccc(S(N)(=O)=O)cc2)c1OCc1ccccc1F | inconclusive: 12.6 µM [inhibitor, single point] | –
40 | Cc1ccc(-n2c(-c3ccco3)nc3c(cnn3-c3ccccc3C)c2=O)cc1 | inconclusive: 17.8 µM [inhibitor, single point] | –
41 | Nc1c(C=C2C=CC(=O)C=C2)c(=O)nc2sc(CC(=O)N3CCCC3)nn12 | inconclusive: 35.5 µM [activator, single point] | –
42 | C/C(=N\N=C1\NC(=O)C(CC(=O)Nc2ccc(C)c(Cl)c2)S1)C(C)C (stereo not drawn) | inconclusive: 12.6 µM [inhibitor, partial curve, poor fit] | –
43 | O=C(c1ccco1)N1CCN(C2CN(Cc3cn(Cc4ccccc4C(F)(F)F)nn3)S(=O)(=O)C2)CC1 (stereo not drawn) | inconclusive: 0.0028 µM [activator, full curve, poor fit] | –

— PubChem BioAssay AID540256 (National Center for Advancing Translational Sciences (NCATS), 2011)
